At least one structure is not confirmed: it was looked up by name or label, or the drawing left a doubt.
Assay: Phase at room temperature
Type: physicochemical
Procedure: All seven organofluorine temperature sensors of Table 1a were synthesized under the optimized reaction conditions for enabling facile synthesis in the following General Scheme and Examples. Specifically, temperature sensors DD1-DD7 were prepared through an SNAr reaction. Compounds DD-2 and DD-4 required one extra oxidation of DD-1 and DD-3 to provide the respective sulfones. Yields of the SNAr reactions using thiol, HS—(CF2)7—CF3, were low […], while the yields with HS—CH2CH2CH2CF2CF3 fell in the range of […].

O=S(=O)(c1c(F)c(F)c(SCCC(F)(F)C(F)(F)C(F)(F)C(F)(F)C(F)(F)C(F)(F)C(F)(F)C(F)(F)F)c(F)c1F)c1c(F)c(F)c(SCCC(F)(F)C(F)(F)C(F)(F)C(F)(F)C(F)(F)C(F)(F)C(F)(F)C(F)(F)F)c(F)c1F [DD-7, (sulfonylbis(2,3,5,6-tetrafluoro-4,1-phenylene))bis((3,3,4,4,5,5,6,6,7,7,8,8,9,9,10,10,10-heptadecafluorodecyl)sulfane)]
Phase: solid

From patent US20240302387A1, “HIGHLY FLUORINATED COMPOUNDS FOR 19F MRI-BASED THERMOMETRY” (Regents of the University of Minnesota, priority 2023, published 2024)
